# Primary screen of a compound library

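Whole-cell assay for inhibitors of Mycobacterium tuberculosis growth, labelled Cornell in the record; the read-out is not stated. The concentration is filed as 10 mM, unlikely as a test dose, so the dose is not known. The record gives no direction; compounds strong in two other growth screens of this library score well above the rest, so higher reads as stronger inhibition. About 53,000 compounds were tested under these conditions; 1.7% (about 900) showed 50% or more at least once.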

Values are the deposited “Percent Effect”, in %.
The record does not define 0% and 100%; most values in the screen are far below 50% and negative numbers occur (in some assays of this library far below -100).
The compounds are a random part of those screened.

SMILES,Percent Effect
O=C(NCc1ccco1)N1CCN(Cc2ccc3c(c2)CCO3)CC1,28.08
O=C(O)C(F)(F)F.[H][C@@]12CCN(Cc3ccccc3)C[C@]1([H])[C@H](C(=O)N(C)C)CCO2,104.8
Cc1ccccc1-c1cncc(C2CCN(CCO)CC2)n1,-10.18
[H][C@@]12CCN(Cc3ccccc3)C[C@@]1([H])O[C@H](C(=O)NCC1CC1)C2,0.5657
CNC(=O)C1Cn2ccnc2C2(CCN(CCF)CC2)O1 (stereo unspecified),14.49
CCS(=O)(=O)Nc1ccn(Cc2ccc(F)cc2Cl)n1,28.06
O=C(c1cc2c(s1)CCOC2)N1CCCCC1Cn1cccn1 (stereo unspecified),-9.268
CC1CCN(CCCNC(=O)Nc2cc3c(cc2Br)OCCO3)CC1,-26.56
O=C(O)C1CCCCN1C(=O)c1cccc(C(F)(F)F)c1 (stereo unspecified),13.75
O=C(NCc1ccc2c(c1)OCO2)c1ccc(N2CCCCCC2)nc1,33.07
CCCN1CCC(N2CCN(c3cc(C)nc(COC)n3)CC2)CC1,-2.989
CN(CCc1ccccc1)Cc1cnc(C2(C)CCCCO2)nc1 (stereo unspecified),32.24
O=C(c1csc(-c2ncccn2)n1)N1CCN2CCCCC2C1 (stereo unspecified),13
c1ccc2oc(CCCN3CCCC(Cn4cncn4)C3)nc2c1 (stereo unspecified),-26.07
CCc1nc(CN(C)C2CCN(CCn3cc(C#N)cn3)C2)no1 (stereo unspecified),-25.64
CCc1nc(CN2CCCN(c3nc4ccccc4o3)CC2)no1,-1.45
Cc1ccc(CNC(=O)NC(C)CN2CCOCC2)s1 (stereo unspecified),-17.03
Cc1ccc2c(c1)nc1n2[C@@H](CNC(=O)c2ccccn2)COC1,-32.78
O=C(O)C(F)(F)F.[H][C@@]12CCN(S(=O)(=O)C3CC3)C[C@]1(COc1ncccc1F)CCO2,5.433
O=C(NC1CCCN(CCCc2ccccc2)C1)c1ccc(Cl)s1 (stereo unspecified),46.25
COc1ncc(Cl)c(NCc2ccc(C(=O)N(C)C)cc2)n1,-9.353
Cc1cnn(CC(=O)NC2CCCc3cc(OC(F)F)ccc32)c1 (stereo unspecified),-14.09
O=C(O)C(F)(F)F.[H][C@@]12CCCO[C@]1([H])[C@@H](OCC(C)C)CN2S(=O)(=O)c1cn(C)cn1,0.2395
CC(NC(=O)NCC(C)(C)O)c1ccc(-c2cncnc2)cc1 (stereo unspecified),-25.08
Cc1cnc(CNC(=O)N(Cc2ccccc2)CC(C)(C)O)s1,19.2
COc1ccc(Oc2ccc(C(F)(F)F)cn2)cc1CN1CCCC1,50.99
Cc1nc(N2CCCC2)nc2c1CN(C(=O)NC(C)C)CC2,36.15
CCC(=O)NCCNC(=O)c1nn(C)c(C)c1Cl,2.846
Oc1cccc(-c2cc(CC3(N(CC4CC4)CC4CC4)COC3)no2)c1,-1.698
CC(C)c1cc(C(=O)O)nc2[nH]c(=O)[nH]c(=O)c12,12.95
CS(=O)(=O)Nc1cccc(CNC(=O)CCC(=O)c2cccs2)c1,16.51
Cn1ccnc1-c1cccc(NC(=O)NCCN2CCOCC2)c1,15.17
CC(NC(=O)COc1ccccc1I)C1CC1 (stereo unspecified),32.45
O=C(CN1CCN(CC2CCOc3ccccc3C2)CC1)N1CCCC1 (stereo unspecified),20.13
CNC(=O)c1cnc(/C=C/c2ccc(OC)c(O)c2)s1,-8.592
[H][C@]12CCN(C(=O)c3ccoc3)[C@@]1([H])CC[C@H](COCc1ccncc1)O2,17.45
O=C(O)C(F)(F)F.O=C(O)C(F)(F)F.O=C1COC2(COCCN(Cc3cccnc3)C2)CN1c1ccccc1 (stereo unspecified),-52.6
COc1cccc(CN2CCCCCC2c2cccc(C)c2)c1O (stereo unspecified),84.28
Cc1c(C(=O)N(C)CC(F)(F)F)nnn1-c1ccccc1Cl,6.595
CC(C)(C)c1nc(CN(Cc2cccs2)C2CCS(=O)(=O)C2)no1 (stereo unspecified),25.17
O=S(=O)(c1cc(F)ccc1N1CC(n2cccn2)C1)C(F)(F)F,10.41
OCC1CCCCN1Cc1nc(Cc2ccccc2)no1 (stereo unspecified),-0.2546
CN(C)C(=O)C1(c2cnccn2)CCCN1C(=O)Cc1ccsc1 (stereo unspecified),11.91
Cc1nn(CC(=O)n2cccn2)c(C)c1I,-52.67
CC(C)N(C(=O)Cn1c(-c2ccco2)cc2cccnc21)C(C)C.Cl,99.58
CCC(c1nc(C(C)C)nn1-c1ccccn1)n1cccn1 (stereo unspecified),-8.983
CC(NCCN1CCN(C(=O)C2CCCC2)CC1)c1ccccn1 (stereo unspecified),6.407
CC(C)NC(=O)N1CCc2ncc(CN3CCOCC3)n2CC1.O=C(O)C(F)(F)F,11.48
[H][C@@]12C[C@H](c3nnc(C)o3)CN(S(=O)(=O)C3CC3)[C@]1([H])CCO2,2.126
N#Cc1nc(COc2ccc3c(c2)OCO3)oc1N1CCCCCC1,35.88
COc1ccc(C2CCCCCN2S(N)(=O)=O)cc1 (stereo unspecified),-30.39
COc1ccc(C(C)Nc2ncc(C(N)=O)cc2Cl)cc1OC (stereo unspecified),-70.16
O=C(CCn1cncn1)NCCOc1cccc(Cl)c1,-5.068
O=C(CS(=O)(=O)Cc1nnnn1C1CC1)NCC1CC1,2.164
CC(=O)N1CCCC(c2nc(N(C)C)ncc2-c2cccc(F)c2)C1 (stereo unspecified),16.53
O=C(NCC(F)(F)C(F)F)c1ccncc1,6.001
N[C@@H]1CC[C@H](C(=O)NCc2ccc3nonc3c2)C1,17.45
CCC(O)CN1CCN(C(=O)Cc2c(C)nc(C)[nH]c2=O)CC1 (stereo unspecified),22.72
Cc1ccc(C)c(C(=O)N2CCN(C(=O)Cc3ccccn3)CC2)c1,-27.91
[H][C@@]12CN(C(=O)[C@H]3CCCO3)C[C@]1([H])C(=O)N(CC1CC1)C2,9.158

Repeated from the top, 4 entries:

SMILES,Percent Effect
O=C(NCc1ccco1)N1CCN(Cc2ccc3c(c2)CCO3)CC1,28.08
O=C(O)C(F)(F)F.[H][C@@]12CCN(Cc3ccccc3)C[C@]1([H])[C@H](C(=O)N(C)C)CCO2,104.8
Cc1ccccc1-c1cncc(C2CCN(CCO)CC2)n1,-10.18
[H][C@@]12CCN(Cc3ccccc3)C[C@@]1([H])O[C@H](C(=O)NCC1CC1)C2,0.5657

Measurements from “University of Dundee, Small-Polar-MMV Screening Library” (2021), ChEMBL document CHEMBL3988442.